Data published in paper PMC7456924.
Results are given in words; binding and its absence hold for the method and conditions named. In cells and extracts the contact can be indirect. Some results given as binding are weak or reduced against the parent protein; the word gives no strength. Tags and fused reporters may be left off the sequences shown.

Key:
Experiment in all cases: split reporter; BiFC in planta: N. benthamiana leaves agroinfiltrated with pSITE-nEYFP-C1 and pSITE-cEYFP-C1 fusions, confocal microscopy three days after agroinfiltration
[1] = target: T1, NBR1 (selective autophagy cargo receptor), BiFC fusion (A. thaliana) (UniProt Q9SB64)
T1 sequence: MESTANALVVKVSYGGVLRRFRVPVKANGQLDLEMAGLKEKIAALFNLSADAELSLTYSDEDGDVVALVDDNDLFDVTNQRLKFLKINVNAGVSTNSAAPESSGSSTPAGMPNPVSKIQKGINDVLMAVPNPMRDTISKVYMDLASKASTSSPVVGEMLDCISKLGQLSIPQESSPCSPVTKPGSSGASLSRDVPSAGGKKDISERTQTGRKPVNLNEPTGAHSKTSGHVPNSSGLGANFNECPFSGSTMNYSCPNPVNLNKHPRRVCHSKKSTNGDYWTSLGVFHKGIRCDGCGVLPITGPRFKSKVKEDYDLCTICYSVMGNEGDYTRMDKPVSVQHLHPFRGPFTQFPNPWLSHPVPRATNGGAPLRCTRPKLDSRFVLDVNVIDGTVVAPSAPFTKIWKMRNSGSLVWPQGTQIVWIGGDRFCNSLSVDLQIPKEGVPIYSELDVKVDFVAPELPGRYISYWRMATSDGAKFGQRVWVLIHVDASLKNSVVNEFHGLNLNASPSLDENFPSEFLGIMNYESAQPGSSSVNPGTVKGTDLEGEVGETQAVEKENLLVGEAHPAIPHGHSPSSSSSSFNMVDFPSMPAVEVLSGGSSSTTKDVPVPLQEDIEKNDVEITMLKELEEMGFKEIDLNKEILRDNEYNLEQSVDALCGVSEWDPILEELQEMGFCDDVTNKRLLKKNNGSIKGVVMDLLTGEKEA

[2] = target: T2, APS1 (ATP sulfurylase), BiFC fusion (A. thaliana) (UniProt Q9LIK9)
T2 sequence: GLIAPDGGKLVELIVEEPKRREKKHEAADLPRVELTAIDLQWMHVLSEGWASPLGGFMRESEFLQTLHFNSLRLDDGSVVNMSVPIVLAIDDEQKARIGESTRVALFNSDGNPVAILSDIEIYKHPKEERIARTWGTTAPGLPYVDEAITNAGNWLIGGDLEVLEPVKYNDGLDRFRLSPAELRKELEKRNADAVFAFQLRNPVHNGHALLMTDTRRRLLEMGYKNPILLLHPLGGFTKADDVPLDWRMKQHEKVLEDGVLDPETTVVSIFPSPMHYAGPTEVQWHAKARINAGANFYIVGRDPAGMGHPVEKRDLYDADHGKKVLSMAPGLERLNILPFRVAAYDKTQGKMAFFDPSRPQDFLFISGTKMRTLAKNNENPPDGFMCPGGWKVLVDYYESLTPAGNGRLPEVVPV

[3] = target: T3, RAF2/SDIRIP1, BiFC fusion (A. thaliana) (UniProt Q9LU63)
T3 sequence: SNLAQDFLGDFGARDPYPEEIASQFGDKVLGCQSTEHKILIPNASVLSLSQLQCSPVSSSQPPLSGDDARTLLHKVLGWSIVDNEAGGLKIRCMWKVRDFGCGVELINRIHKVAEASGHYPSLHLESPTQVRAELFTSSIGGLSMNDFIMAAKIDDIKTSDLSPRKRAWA

[4] = target: T4, LSU2, BiFC fusion (nYFP-LSU2 or cYFP-LSU2) (A. thaliana) (UniProt Q9FIR9)
T4 sequence: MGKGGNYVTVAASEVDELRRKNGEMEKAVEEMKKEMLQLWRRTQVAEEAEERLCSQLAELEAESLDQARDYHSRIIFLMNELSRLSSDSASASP

[5] = target: T5, LSU3, BiFC fusion (nYFP-LSU3 or cYFP-LSU3) (A. thaliana) (UniProt Q9SCK2)
T5 sequence: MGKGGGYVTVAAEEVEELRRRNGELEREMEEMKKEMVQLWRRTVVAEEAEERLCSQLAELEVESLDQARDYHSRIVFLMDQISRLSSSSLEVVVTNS

[6] = target: T6, LSU4, BiFC fusion (nYFP-LSU4 or cYFP-LSU4) (A. thaliana) (UniProt Q8L8S2)
T6 sequence: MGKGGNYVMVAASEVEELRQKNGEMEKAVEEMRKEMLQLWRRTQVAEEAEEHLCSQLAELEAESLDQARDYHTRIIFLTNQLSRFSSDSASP

[7] = target: T7, CAT2 (peroxisomal catalase), BiFC fusion (A. thaliana) (UniProt P25819)
T7 sequence: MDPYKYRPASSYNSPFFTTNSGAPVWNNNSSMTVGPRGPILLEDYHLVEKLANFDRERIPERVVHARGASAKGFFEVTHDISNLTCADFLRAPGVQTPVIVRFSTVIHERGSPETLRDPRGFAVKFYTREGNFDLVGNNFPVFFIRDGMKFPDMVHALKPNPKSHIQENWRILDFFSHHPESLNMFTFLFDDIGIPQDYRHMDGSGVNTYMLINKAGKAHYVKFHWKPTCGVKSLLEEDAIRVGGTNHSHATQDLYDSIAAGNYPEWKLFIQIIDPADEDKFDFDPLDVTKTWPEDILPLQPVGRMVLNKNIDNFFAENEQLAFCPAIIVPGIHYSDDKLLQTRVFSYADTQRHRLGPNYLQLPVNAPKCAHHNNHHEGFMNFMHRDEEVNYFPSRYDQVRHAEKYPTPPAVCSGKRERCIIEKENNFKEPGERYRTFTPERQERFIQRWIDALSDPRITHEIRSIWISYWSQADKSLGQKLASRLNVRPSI

Measured: binding

B1: LSU1, BiFC fusion (nYFP-LSU1 or cYFP-LSU1) (protein, UniProt Q9SCK1 1-94)
chain: MANRGGCVTVAAEEMDELRRRNIELSREVAEMKTEMIKLWQRTVVAEEAEEQLCSQLAELEVESLEQARDYHDRMLFLMDQISRLSSSSVVSSS
binds: all assays above
